Values of other authors in patent publication US9968583B2, “Method of manufacture of liposome composition” (EISAI R & D MANAGEMENT CO., LTD., priority 2009, dated 2018).
For at least one compound, name, drawing or mass did not settle the structure.

Settings: solubilized with CyD derivatives, lipid film method; Non-patent Literature 5; cited from earlier work

In the case of `C[C@H]1C[C@H]2[C@@H]3CCC4=CC(=O)C=C[C@]4(C)[C@@]3(F)[C@@H](O)C[C@]2(C)[C@@]1(O)C(=O)CO` [betamethasone], the Entrapment ratio is given as at most 3%.
